Reference: paper PMC4729957, “The Atg1–kinase complex tethers Atg9-vesicles to initiate autophagy” (Nature Communications, 2016)
No constants are given. Whether binding was seen depends on the method and setting. For part of these data: Binding seen in cells or lysates may run through a third protein. Some results given as binding are weak or reduced against the parent protein; the word gives no strength. For part of these data: Where a sequence is shown, tags or fusion partners need not be part of it. Values belong to the molecule of their own block, whether it stands above or below them.

Sequences of proteins named here, by UniProt entry; tags and fusion partners are left off. A change or cut given only in a name is not applied to a line headed by its entry.
UniProt P53104: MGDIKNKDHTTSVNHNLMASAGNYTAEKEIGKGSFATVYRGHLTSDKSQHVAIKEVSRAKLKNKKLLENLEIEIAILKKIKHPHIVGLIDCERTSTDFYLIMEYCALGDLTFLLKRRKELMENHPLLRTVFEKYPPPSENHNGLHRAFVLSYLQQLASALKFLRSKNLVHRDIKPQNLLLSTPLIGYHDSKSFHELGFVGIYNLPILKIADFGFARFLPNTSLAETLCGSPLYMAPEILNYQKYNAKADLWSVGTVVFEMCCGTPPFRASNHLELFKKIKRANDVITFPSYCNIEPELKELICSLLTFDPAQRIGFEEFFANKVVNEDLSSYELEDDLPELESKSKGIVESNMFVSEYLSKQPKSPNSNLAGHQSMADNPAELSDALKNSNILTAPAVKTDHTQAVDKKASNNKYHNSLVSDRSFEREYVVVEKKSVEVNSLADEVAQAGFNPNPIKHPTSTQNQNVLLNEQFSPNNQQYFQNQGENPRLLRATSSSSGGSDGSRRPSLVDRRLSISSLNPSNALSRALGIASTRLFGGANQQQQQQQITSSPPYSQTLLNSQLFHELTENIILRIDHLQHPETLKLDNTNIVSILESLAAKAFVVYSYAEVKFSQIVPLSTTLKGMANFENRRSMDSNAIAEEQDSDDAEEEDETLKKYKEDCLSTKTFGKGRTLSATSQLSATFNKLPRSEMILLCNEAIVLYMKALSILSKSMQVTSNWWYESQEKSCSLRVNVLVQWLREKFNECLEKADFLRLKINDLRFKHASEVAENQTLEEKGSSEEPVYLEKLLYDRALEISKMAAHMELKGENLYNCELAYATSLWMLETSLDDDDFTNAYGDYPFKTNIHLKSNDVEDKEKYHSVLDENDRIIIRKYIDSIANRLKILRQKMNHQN

What was measured:
[1] = biological target: T1, Atg9^core (Atg9^281–779), reconstituted in proteoliposomes (S. cerevisiae) (UniProt Q12142); test: co-floatation with proteoliposomes; Atg9 variant held in proteoliposomes (synthetic lipids without PI), partner in solution at 1:1, Nycodenz step gradient, 650,000g 2 h at 4 °C, 25 mM HEPES pH 7.0, 100 mM NaCl; top fraction read by SDS–PAGE or α-myc immunoblot; both purified
T1 sequence: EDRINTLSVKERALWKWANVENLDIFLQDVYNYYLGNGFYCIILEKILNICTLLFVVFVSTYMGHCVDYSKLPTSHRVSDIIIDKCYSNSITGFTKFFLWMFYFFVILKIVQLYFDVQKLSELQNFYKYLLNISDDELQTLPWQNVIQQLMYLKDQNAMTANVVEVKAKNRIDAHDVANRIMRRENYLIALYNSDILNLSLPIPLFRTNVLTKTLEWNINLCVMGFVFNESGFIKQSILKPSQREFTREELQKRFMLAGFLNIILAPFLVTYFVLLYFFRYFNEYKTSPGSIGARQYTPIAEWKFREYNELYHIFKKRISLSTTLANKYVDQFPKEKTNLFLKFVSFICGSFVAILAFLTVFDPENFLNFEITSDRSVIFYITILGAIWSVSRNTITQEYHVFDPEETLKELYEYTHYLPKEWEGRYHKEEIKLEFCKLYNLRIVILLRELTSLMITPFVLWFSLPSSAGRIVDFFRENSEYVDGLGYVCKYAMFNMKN

[2] = biological target: T2, GST-Atg31^160–196 (S. cerevisiae) (UniProt Q12421); test: pull-down; 10 μg GST-Atg31^160–196 incubated with yeast cell lysate, Glutathione Sepharose 4B beads, washed with lysis buffer with an additional 100 mM NaCl; only the target purified
T2 sequence: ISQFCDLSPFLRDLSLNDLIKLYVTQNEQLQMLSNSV

[3] = biological target: T3, Atg17 (S. cerevisiae) (UniProt Q06410); test: co-purification of co-expressed proteins (Ni-NTA, SEC); co-expression in E. coli Rosetta (Atg17, Atg31 and Atg29 from pST39 with the tag on Atg17; Atg31 with Atg29), Ni-NTA and SEC
T3 sequence: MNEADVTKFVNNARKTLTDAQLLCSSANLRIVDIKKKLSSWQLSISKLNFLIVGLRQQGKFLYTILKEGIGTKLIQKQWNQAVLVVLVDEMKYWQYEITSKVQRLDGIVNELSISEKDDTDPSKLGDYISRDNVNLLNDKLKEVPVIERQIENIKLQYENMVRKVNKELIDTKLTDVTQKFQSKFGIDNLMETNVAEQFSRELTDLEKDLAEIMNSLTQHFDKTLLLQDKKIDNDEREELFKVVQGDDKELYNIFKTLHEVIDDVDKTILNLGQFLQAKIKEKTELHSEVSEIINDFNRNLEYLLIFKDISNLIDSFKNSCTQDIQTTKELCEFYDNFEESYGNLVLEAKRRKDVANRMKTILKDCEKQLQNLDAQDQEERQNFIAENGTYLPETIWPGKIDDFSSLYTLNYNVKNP

[4] = biological target: T4, Atg31 (S. cerevisiae) (UniProt Q12421); test: as above
T4 sequence: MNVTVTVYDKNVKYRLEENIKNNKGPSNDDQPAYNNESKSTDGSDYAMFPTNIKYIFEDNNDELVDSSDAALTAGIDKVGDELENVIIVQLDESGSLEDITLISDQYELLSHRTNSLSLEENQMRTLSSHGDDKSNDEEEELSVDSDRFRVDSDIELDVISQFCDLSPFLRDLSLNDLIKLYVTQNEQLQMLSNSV

[5] = biological target: T5, Atg17^GFP in yeast (S. cerevisiae) (UniProt Q06410); test: co-IP; GFP-Trap-M beads, yeast lysate (25 mM Tris-HCl pH 7.2, 150 mM NaCl, 0.2% NP-40), 2 h at 4 °C; α-HA immunoblot
T5 sequence: T3 sequence

[6] = biological target: T6, Atg17^myc in yeast (S. cerevisiae) (UniProt Q06410); test: co-IP; the pair that is blocked in a11: α-myc IP of Atg17^myc from lysates of cells starved for 2 h, Atg9^HA by α-HA immunoblot
T6 sequence: T3 sequence

[7] = biological target: T6, Atg17^myc in yeast (S. cerevisiae); test: co-IP; α-myc antibody on magnetic protein A beads, yeast lysate (25 mM Tris-HCl pH 7.2, 150 mM NaCl, 0.2% NP-40), 2 h at 4 °C; vegetative cells and cells starved for 2 h; wild-type, atg1Δ and atg13Δ cells; α-HA immunoblot

- binding [1]: binds weakly
Molecule: Atg1^monoPC with myc-tagged Atg17^1–354 (from UniProt P53104 1-897; Q06628 1-738; Q06410 1-354; Q12421 1-196; Q12092 1-213) (complex)

- binding [2]: binds
B1: Atg17^myc in yeast (protein, UniProt Q06410 1-417)
chain: T3 sequence

- binding [3]: binds
- binding [4]: binds
B2: Atg29 (protein, UniProt Q12092 1-213)
chain: MIMNSTNTVVYIKVKGRRPQGFLDPPKFEWNGTKERQLWTMVSNLNYSQDQIDWQNLSKIFETPEFFLKKRTYKLFAEHLELLQLQLEKKRDLEKYSNDQVNEGMSDLIHKYTPTLQNDNLLNVSASPLTTERQDSEEVETEVTNEALQHLQTSKILNIHKKTSDSENKPNDKLDKDGINKEMECGSSDDDLSSSLSVSKSALEEALMDRLQF

- binding [1]: binds weakly
B3: Atg17^monoTC with myc-tagged Atg17^1–354 (complex, UniProt Q06410 1-354; Q12421 1-196; Q12092 1-213)
chain 1: MNEADVTKFVNNARKTLTDAQLLCSSANLRIVDIKKKLSSWQLSISKLNFLIVGLRQQGKFLYTILKEGIGTKLIQKQWNQAVLVVLVDEMKYWQYEITSKVQRLDGIVNELSISEKDDTDPSKLGDYISRDNVNLLNDKLKEVPVIERQIENIKLQYENMVRKVNKELIDTKLTDVTQKFQSKFGIDNLMETNVAEQFSRELTDLEKDLAEIMNSLTQHFDKTLLLQDKKIDNDEREELFKVVQGDDKELYNIFKTLHEVIDDVDKTILNLGQFLQAKIKEKTELHSEVSEIINDFNRNLEYLLIFKDISNLIDSFKNSCTQDIQTTKELCEFYDNFEESYGNLVLEAKRRKD
chain 2: T4 sequence
chain 3: B2 chain

- binding [5]: binds
B4: HA-tagged Atg9^core in yeast (pRS316-Atg9^core-3xHA) (domain or fragment, UniProt Q12142 281-779)
chain: T1 sequence

- binding [3]: binds
B5: Atg31 (protein, UniProt Q12421 1-196)
chain: T4 sequence

- binding [6]: binds
- binding [7]: binds
B6: Atg9^WT, HA-tagged, in yeast (pTL58-Atg9–3xHA) (protein, UniProt Q12142 1-997)
chain: MERDEYQLPNSHGKNTFLSRIFGLQSDEVNPSLNSQEMSNFPLPDIERGSSLLHSTNDSREDVDENDLRVPESDQGTSTEEEDEVDEEQVQAYAPQISDGLDGDHQLNSVTSKENVLETEKSNLERLVEGSTDDSVPKVGQLSSEEEEDNEFINNDGFDDDTPLFQKSKIHEFSSKKSNTIEDGKRPLFFRHILQNNRPQRDTQKLFTSSNAIHHDKDKSANNGPRNINGNQKHGTKYFGSATQPRFTGSPLNNTNRFTKLFPLRKPNLLSNISVLNNTPEDRINTLSVKERALWKWANVENLDIFLQDVYNYYLGNGFYCIILEKILNICTLLFVVFVSTYMGHCVDYSKLPTSHRVSDIIIDKCYSNSITGFTKFFLWMFYFFVILKIVQLYFDVQKLSELQNFYKYLLNISDDELQTLPWQNVIQQLMYLKDQNAMTANVVEVKAKNRIDAHDVANRIMRRENYLIALYNSDILNLSLPIPLFRTNVLTKTLEWNINLCVMGFVFNESGFIKQSILKPSQREFTREELQKRFMLAGFLNIILAPFLVTYFVLLYFFRYFNEYKTSPGSIGARQYTPIAEWKFREYNELYHIFKKRISLSTTLANKYVDQFPKEKTNLFLKFVSFICGSFVAILAFLTVFDPENFLNFEITSDRSVIFYITILGAIWSVSRNTITQEYHVFDPEETLKELYEYTHYLPKEWEGRYHKEEIKLEFCKLYNLRIVILLRELTSLMITPFVLWFSLPSSAGRIVDFFRENSEYVDGLGYVCKYAMFNMKNIDGEDTHSMDEDSLTKKIAVNGSHTLNSKRRSKFTAEDHSDKDLANNKMLQSYVYFMDDYSNSENLTGKYQLPAKKGYPNNEGDSFLNNKYSWRKQFQPGQKPELFRIGKHALGPGHNISPAIYSTRNPGKNWDNNNNGDDIKNGTNNATAKNDDNNGNNDHEYVLTESFLDSGAFPNHDVIDHNKMLNSNYNGNGILNKGGVLGLVKEYYKKSDVGR
